Experimental data published in PMC6450910.
No constants are given. Whether binding was seen depends on the method and setting. In cells and extracts the contact can be indirect. Some results given as binding are weak or reduced against the parent protein; the word gives no strength. For some assays here: Sequences can lack the tags named with a protein.

Protein sequences, listed by entry. Tags and fused reporters are not part of them. Residues count along the entry.
UniProt P34741, residues 19-201: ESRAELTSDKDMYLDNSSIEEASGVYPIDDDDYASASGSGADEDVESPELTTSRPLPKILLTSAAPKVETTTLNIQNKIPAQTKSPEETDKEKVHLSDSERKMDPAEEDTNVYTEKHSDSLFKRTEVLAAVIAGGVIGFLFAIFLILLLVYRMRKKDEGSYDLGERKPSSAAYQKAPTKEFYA
UniProt P35918, residues 20-1345: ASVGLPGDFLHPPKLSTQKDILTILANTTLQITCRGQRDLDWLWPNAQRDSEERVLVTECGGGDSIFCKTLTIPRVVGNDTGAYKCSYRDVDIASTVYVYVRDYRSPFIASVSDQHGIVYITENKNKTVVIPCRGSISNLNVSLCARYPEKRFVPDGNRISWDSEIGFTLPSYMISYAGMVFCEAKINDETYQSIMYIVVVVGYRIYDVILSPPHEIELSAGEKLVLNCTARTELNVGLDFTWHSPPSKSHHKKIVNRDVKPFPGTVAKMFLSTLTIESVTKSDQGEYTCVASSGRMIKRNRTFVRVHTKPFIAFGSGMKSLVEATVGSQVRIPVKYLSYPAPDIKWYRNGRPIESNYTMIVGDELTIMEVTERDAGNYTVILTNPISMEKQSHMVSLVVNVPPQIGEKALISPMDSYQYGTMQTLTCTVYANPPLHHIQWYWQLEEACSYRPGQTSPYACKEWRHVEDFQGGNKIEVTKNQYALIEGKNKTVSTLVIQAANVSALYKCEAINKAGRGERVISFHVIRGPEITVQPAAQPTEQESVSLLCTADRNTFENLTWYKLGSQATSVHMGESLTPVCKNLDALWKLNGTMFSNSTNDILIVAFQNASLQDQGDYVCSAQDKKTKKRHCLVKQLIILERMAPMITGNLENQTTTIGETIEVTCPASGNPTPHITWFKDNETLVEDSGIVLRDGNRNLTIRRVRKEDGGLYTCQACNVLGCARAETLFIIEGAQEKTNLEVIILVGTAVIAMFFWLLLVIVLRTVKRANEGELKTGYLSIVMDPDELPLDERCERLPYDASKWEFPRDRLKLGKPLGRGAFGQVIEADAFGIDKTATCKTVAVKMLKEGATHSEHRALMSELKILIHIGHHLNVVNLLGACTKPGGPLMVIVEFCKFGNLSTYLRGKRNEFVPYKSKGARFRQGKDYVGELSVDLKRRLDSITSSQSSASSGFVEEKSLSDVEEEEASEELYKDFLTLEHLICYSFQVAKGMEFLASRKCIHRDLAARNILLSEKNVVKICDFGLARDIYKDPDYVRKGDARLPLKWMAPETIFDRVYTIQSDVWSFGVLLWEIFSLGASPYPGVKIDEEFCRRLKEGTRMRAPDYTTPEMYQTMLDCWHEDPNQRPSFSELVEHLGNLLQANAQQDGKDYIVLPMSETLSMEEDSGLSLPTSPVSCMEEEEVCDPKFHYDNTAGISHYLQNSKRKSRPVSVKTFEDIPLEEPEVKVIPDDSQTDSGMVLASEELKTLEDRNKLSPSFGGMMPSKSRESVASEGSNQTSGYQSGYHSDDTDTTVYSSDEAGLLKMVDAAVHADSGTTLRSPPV
UniProt O00560: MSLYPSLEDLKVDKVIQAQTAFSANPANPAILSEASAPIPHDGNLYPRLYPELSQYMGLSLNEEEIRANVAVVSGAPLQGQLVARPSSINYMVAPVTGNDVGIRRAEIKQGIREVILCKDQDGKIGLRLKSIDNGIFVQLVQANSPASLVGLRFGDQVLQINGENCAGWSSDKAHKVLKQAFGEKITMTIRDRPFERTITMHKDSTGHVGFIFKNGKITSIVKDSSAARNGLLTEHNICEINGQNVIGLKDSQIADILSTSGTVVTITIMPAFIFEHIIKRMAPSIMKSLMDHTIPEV

Legend:
[1] = molecular target: T1, Sdc4^D1/Sdc2^D2 chimera (Sdc2 with its D1 region replaced by Sdc4 D1) (UniProt P31431); assay: co-IP; Sdc2-/- primary mouse ECs transduced 16 h with adenovirus (MOI 1-2), starved 8 h, stimulated with VEGFA165 (50 ng/ml) 5 min; 1% Triton lysis buffer; anti-HA magnetic beads 2 h at 4 °C; western blot
T1 sequence: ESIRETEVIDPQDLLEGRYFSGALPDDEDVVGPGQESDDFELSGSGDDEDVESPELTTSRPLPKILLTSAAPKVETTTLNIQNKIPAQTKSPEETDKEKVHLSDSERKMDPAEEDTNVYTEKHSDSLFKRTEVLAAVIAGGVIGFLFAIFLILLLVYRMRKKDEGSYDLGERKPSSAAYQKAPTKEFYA

[2] = molecular target: HA-tagged wild-type Syndecan-2 (Ad-Sdc2) (UniProt P34741); assay: co-IP; as a1, Sdc2-/- primary mouse ECs, without VEGFA165 stimulation; anti-HA magnetic beads 2 h at 4 °C; western blot
[3] = molecular target: HA-tagged wild-type Syndecan-2 (Ad-Sdc2) (UniProt P34741); assay: as above; remark: listed apart in the source
[4] = molecular target: T2, HA-tagged wild-type Syndecan-4 (Ad-Sdc4) (UniProt P31431); assay: co-IP; mouse endothelial cell line MS1, VEGFA165 stimulation (Supplementary Figure 6f)
T2 sequence: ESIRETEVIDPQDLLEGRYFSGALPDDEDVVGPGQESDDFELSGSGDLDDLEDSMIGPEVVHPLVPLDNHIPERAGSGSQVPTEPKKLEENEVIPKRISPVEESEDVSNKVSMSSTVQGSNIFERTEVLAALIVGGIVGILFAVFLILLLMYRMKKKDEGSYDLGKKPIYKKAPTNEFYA

[5] = molecular target: HA-tagged wild-type Syndecan-2 (Ad-Sdc2) (UniProt P34741); assay: co-IP; HUVEC transduced 16 h with adenovirus (MOI 1-2), starved 8 h, stimulated with VEGFA165 (50 ng/ml) 5 min (panels with or without VEGFA165); 1% Triton lysis buffer; anti-HA magnetic beads 2 h at 4 °C; western blot

VEGFR2 (mouse, endogenous) (from UniProt P35918 20-1345) (receptor)
binding [1]: no binding
binding [2]: no binding (condition: without VEGFA165)
binding [3]: binds weakly
binding [4]: no binding

syntenin (human, endogenous) (from UniProt O00560 1-298)
binding [5]: binds
